Experimental data reported in patent publication US20250129150A1.
No constants are given. Whether binding was seen depends on the method and setting. Some results given as binding are weak or reduced against the parent protein; the word gives no strength.

Target: Recombinant Cynomolgus IL-13 Protein, His Tag (SINO BIOLOGICAL, Cat. 11057-C07H) (cynomolgus monkey)
Assay: SPR

binding	Binder
binds	Construct 139 (antibody, human IgG4, kappa) heavy: EVQLLESGGGLVQPGGSLRLSCAASGFSLNAYSVNWVRQAPGKGLEWLGMIWGDGKIVYNSALKSRLTISKDSSKNTVYLQMNSLRAEDTAVYYCAGDGYYPYAMDNWGQGTTVTVSSASTKGPSVFPLAPCSRSTSESTAALGCLVKDYFPEPVTVSWNSGALTSGVHTFPAVLQSSGLYSLSSVVTVPSSSLGTKTYTCNVDHKPSNTKVDKRVESKYGPPCPSCPAPEFLGGPSVFLFPPKPKDTLMISRTPEVTCVVVDVSQEDPEVQFNWYVDGVEVHNAKTKPREEQFNSTYRVVSVLTVLHQDWLNGKEYKCKVSNKGLPSSIEKTISKAKGQPREPQVYTLPPSQEEMTKNQVSLTCLVKGFYPSDIAVEWESNGQPENNYKTTPPVLDSDGSFFLYSRLTVDKSRWQEGNVFSCSVLHEALHSYTQKSLSLSLGK light: DIQLTQSPSSLSASVGDRVTITCRASKSVDSYGNSFMHWYQQKPGKAPKLLIYLASELESGVPSRFSGSGSGTDFTLTISSLQPEDFATYYCQQNNEDPRTFGGGTKVEIKRTVAAPSVFIFPPSDEQLKSGTASVVCLLNNFYPREAKVQWKVDNALQSGNSQESVTEQDSKDSTYSLSSTLTLSKADYEKHKVYACEVTHQGLSSPVTKSFNRGEC
binds	Construct 143 (antibody, human IgG4, kappa) heavy: EVQLQESGPGLVKPSETLSLTCTVSGFSLNAYSVNWIRQPPGKGLEWLGMIWGDGKIVYNSALKSRLTISKDSSKNQVSLKLSSVTAADTAVYYCAGDGYYPYAMDNWGQGTTVTVSSASTKGPSVFPLAPCSRSTSESTAALGCLVKDYFPEPVTVSWNSGALTSGVHTFPAVLQSSGLYSLSSVVTVPSSSLGTKTYTCNVDHKPSNTKVDKRVESKYGPPCPSCPAPEFLGGPSVFLFPPKPKDTLMISRTPEVTCVVVDVSQEDPEVQFNWYVDGVEVHNAKTKPREEQFNSTYRVVSVLTVLHQDWLNGKEYKCKVSNKGLPSSIEKTISKAKGQPREPQVYTLPPSQEEMTKNQVSLTCLVKGFYPSDIAVEWESNGQPENNYKTTPPVLDSDGSFFLYSRLTVDKSRWQEGNVFSCSVLHEALHSYTQKSLSLSLGK light: DIQLTQSPSSLSASVGDRVTITCRASKSVDSYGNSFMHWYQQKPGKAPKLLIYLASELESGVPSRFSGSGSGTDFTLTISSLQPEDFATYYCQQNNEDPRTFGGGTKVEIKRTVAAPSVFIFPPSDEQLKSGTASVVCLLNNFYPREAKVQWKVDNALQSGNSQESVTEQDSKDSTYSLSSTLTLSKADYEKHKVYACEVTHQGLSSPVTKSFNRGEC
